According to patent publication US20080160574A1 (KOREA ADVANCED INSTITUTE OF SCIENCE AND TECHNOLOGY KAIST, published 2008):
These are yes or no findings as the source states them, for the method shown. Some entries that bind do so weakly or less than the wild type.

Amino acid sequences for entries named in this document (tags omitted). A change or cut given only in a name is not applied to a line headed by its entry.
UniProt Q02763: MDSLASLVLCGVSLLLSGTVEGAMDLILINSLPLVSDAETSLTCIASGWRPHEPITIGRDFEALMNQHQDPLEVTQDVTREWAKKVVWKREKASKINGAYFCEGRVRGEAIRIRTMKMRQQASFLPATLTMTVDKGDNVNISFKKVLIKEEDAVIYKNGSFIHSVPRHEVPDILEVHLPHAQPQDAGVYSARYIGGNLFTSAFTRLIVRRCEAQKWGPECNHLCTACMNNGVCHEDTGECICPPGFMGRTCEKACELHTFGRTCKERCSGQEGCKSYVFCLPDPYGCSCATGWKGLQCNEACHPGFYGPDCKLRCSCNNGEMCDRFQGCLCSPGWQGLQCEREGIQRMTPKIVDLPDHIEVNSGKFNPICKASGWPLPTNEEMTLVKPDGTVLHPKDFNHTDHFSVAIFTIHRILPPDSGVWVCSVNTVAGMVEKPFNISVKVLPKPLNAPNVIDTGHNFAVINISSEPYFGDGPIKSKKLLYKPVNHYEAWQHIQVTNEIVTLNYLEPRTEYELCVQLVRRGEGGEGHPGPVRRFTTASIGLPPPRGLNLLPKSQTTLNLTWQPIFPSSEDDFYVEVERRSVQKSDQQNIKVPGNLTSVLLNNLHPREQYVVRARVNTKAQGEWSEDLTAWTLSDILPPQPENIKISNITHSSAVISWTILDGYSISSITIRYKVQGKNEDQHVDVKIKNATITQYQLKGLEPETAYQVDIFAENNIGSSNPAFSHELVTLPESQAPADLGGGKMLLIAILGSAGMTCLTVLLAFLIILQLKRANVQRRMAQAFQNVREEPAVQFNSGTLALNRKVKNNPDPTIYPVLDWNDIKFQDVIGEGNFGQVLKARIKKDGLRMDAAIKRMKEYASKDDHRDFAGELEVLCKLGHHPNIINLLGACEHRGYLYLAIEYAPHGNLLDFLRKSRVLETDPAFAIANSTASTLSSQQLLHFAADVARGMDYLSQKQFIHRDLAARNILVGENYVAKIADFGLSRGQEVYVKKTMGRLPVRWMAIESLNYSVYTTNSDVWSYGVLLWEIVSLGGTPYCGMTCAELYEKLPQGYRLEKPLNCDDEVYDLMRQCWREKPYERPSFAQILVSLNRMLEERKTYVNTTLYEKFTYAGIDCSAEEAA

What was measured:
[1] = target: soluble Tie2-Fc (fusion of the ectodomain of Tie-2 receptor and the Fc domain of human IgG1, R&D Inc) (human) (UniProt Q02763); assay: Biacore (SPR), Tie2-Fc immobilised on the sensor chip, analytes at 60 nM
[2] = target: soluble Tie2-Fc (fusion of the ectodomain of Tie-2 receptor and the Fc domain of human IgG1, R&D Inc) (human) (UniProt Q02763); assay: Biacore, dissociation step, Tie2-Fc immobilized; not disrupted by HCl pH 4.0-2.0 or 1M NaCl
[3] = target: soluble Tie2-Fc (fusion of the ectodomain of Tie-2 receptor and the Fc domain of human IgG1, R&D Inc) (human) (UniProt Q02763); assay: Biacore (SPR), Tie2-Fc immobilised on the sensor chip, Fc reference subtracted
[4] = target: soluble Tie2-Fc (fusion of the ectodomain of Tie-2 receptor and the Fc domain of human IgG1, R&D Inc) (human) (UniProt Q02763); assay: in vitro binding assay (pull-down)

binding [1]	binding [2]	binding [3]	binding [4]	Binder
binds	binds	binds	binds	COMP/CC-Ang1/FD (coiled-coil domain of COMP - fibrinogen domain of Ang1) (ligand, The end, 312, is worked out from the stated lengths: 16 signal + 8 FLAG + 3 + 45 COMP + 2 + 238 Ang1 Leu261-498; ~180 kDa and ~250 kDa were observed under non-reducing conditions; also called COMP-Ang1/FD; CO/CC-A1/FD) DYKDDDDKGILDLAPQMLRELQETNAALQDVRELLRQQVKEITFLKNTVMECDACGGSLVNLCTKEGVLLKGGKREEEKPFRDCADVYQAGFNKSGIYTIYINNMPEPKKVFCNMDVNGGGWTVIQHREDGSLDFQRGWKEYKMGFGNPSGEYWLGNEFIFAIYSQRQYMLRIELMDWEGNRAYSQYDRFHIGNEKQNYRLYLKGHTGTAGKQSSLILHGADFSTKDADNDNCMCKCALMLTGGWWFDACGPSNLNGMFYTAGQNHGKLNGIKWHYFKGPSYSLRSTTMMIRPLDF
binds	binds	binds	binds	CMP/CC-Ang1/FD (coiled-coil domain of CMP - fibrinogen domain of Ang1) (ligand, The end, 310, is worked out from bases 1-933 including the stop codon; ~140 kDa and ~180 kDa were observed under non-reducing conditions; also called CMP-Ang1/FD; C/CC-A1/FD) YKDDDDKGILDEDPCECKSIVKFQTKVEELINTLQQKLEAVAKRIEALENKIIGSLVNLCTKEGVLLKGGKREEEKPFRDCADVYQAGFNKSGIYTIYINNMPEPKKVFCNMDVNGGGWTVIQHREDGSLDFQRGWKEYKMGFGNPSGEYWLGNEFIFAIYSQRQYMLRIELMDWEGNRAYSQYDRFHIGNEKQNYRLYLKGHTGTAGKQSSLILHGADFSTKDADNDNCMCKCALMLTGGWWFDACGPSNLNGMFYTAGQNHGKLNGIKWHYFKGPSYSLRSTTMMIRPLDF
